At least one read-out could not be matched to a standard name with certainty.
Key:
msm = test: Catalytic efficiency of TPMT-catalyzed methylation of SAH to SAM (initial rates, cation-exchange HPLC); format: biochemical, Mycolicibacterium smegmatis; conditions: methyl donor MeOTs 40 to 300 µM; 1 mM SAH, 50 mM phosphate buffer pH 8.0, 25°C, 10 µM enzyme
BxHMT = conditions: methyl donor MeOTs 40 to 300 µM; 1 mM SAH, 50 mM phosphate buffer pH 8.0, 25°C, 10 µM enzyme

COS(=O)(=O)c1ccc(C)cc1 [MeOTs, methyl 4-toluenesulfonate]
kcat/KM (msm): 5.3 ± 0.3 M⁻¹ s⁻¹
kcat/KM (BxHMT): 10 ± 0.7 M⁻¹ s⁻¹

From patent EP4324928A1, “SYNTHETIC REAGENTS FOR ENZYME-CATALYSED ALKYLATION” (priority 2022, dated 2024)
